Source: PubChem BioAssay AID651640 (Broad Institute, 2012)
The whole screen tested about 350,000 compounds, of which about 6,000 (1.7%) were called active. The shares of active, inactive and inconclusive entries below differ from those in the screen. Cut-off read from the data, not from the text of the source: active = CPE inhibition above about 20% (passing the limit was not always enough); inconclusive = no clear call, values can overlap the other calls; tested in BHK-21 cells.

Assay: protection of cells from dengue 2 killing – plate reader, single concentration, primary screen (AID 651640);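 note: 0% = median of neutral control wells and 100% = median of positive control wells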
Details: DENV2-infected cells, cytopathic effect rescue, at 9.99 µM, stronger effect = higher value

Row | Compound | CPE inhibition
1 | COC(=O)[C@@]1(Cc2ccc(OC)cc2)[C@H]2c3cc(C(=O)N4CCCC4)n(Cc4ccccn4)c3C[C@H]2CN1C(=O)c1ccccc1 | inconclusive: 32.8%
2 | CCCNC(=O)N1CCC2(CC1)CN(Cc1ccccn1)[C@@H](CO)c1c2c2ccc(OC)cc2n1C | active: 70.5%
3 | COc1ccc(-c2cnc3c(c2)C(=O)N([C@H](C)CO)C[C@@H](C)[C@H](CN(C)Cc2ccc(C(=O)O)cc2)O3)cc1 | inconclusive: 20.9%
4 | O=C(COc1ccccc1)Nc1ccccc1C(=O)NC1CC1 | inactive: -7.75%
5 | C[C@H]1CN([C@@H](C)CO)C(=O)c2cc(NC(=O)NC3CCCCC3)ccc2O[C@H]1CN(C)S(=O)(=O)c1cn(C)cn1 | inconclusive: 23.6%
6 | CCCNC(=O)N1C[C@H]2[C@@H](c3ccccc31)[C@@H](CO)N2C(=O)NCCC | inconclusive: 76.9%
7 | COc1ccc(-c2csc(NC(CO)c3nc4ccccc4n3CCCO)n2)cc1 (stereo unspecified) | inconclusive: 70.3%
8 | CC(=O)C[C@H](O)CC(=O)[C@H]1OC(=O)CCCCCc2ccccc21 | inconclusive: 22.9%
9 | CCCCOCCO | inconclusive: 22.7%
10 | O=S(=O)(c1ccccc1F)N1CC[C@@H]2[C@H]1c1cc(-c3ccccc3F)ccc1N[C@@H]2CO | active: 40.1%
11 | CCN1CCN(CC(=O)Nc2nc3ccc(C)cc3s2)CC1 | active: 24.6%
12 | CCC(CO)Oc1cc(NC(=O)c2ccc(OC)cc2)c2ncn(C(C)C)c2c1 (stereo unspecified) | inconclusive: 29.1%
13 | COC(=O)c1ccc(NC(=O)c2ccc3nc(C)sc3c2)cc1 | inconclusive: 22.5%
14 | C[C@@H]1CCCCO[C@H](CN(C)C(=O)Cc2ccccc2)[C@@H](C)CN([C@H](C)CO)C(=O)c2cc(NS(=O)(=O)c3ccc(Cl)cc3)ccc2O1 | active: 53.5%
15 | Cn1c(=S)c2[nH]c(SCCC(C)(C)C)nc2n(C)c1=O | inconclusive: 22.1%
16 | Cc1ccnc(NS(=O)(=O)c2ccc(NC(=O)c3cccc(Cl)c3)cc2)n1 | inconclusive: 44.8%
17 | C/C=C/c1ccc([C@H]2[C@@H](CO)N(C(=O)CC)[C@H]2CN(C)S(C)(=O)=O)cc1 | inconclusive: 15.9%
18 | COc1ccc2c3c(n(C)c2c1)[C@H](CO)N(C(=O)c1cccnc1)CC31CN(S(C)(=O)=O)C1 | inactive: -4.59%
19 | CC(C)CC#Cc1ccc2c(c1)O[C@H](CN(C)C(=O)Nc1ccccc1F)[C@H](C)CN([C@H](C)CO)S2(=O)=O | active: 32.3%
20 | O=C(c1cccc(S(=O)(=O)N2CCN(c3ccc(F)cc3)CC2)c1)N1CCCCCCC1 | inconclusive: 22.7%
21 | O=C(C[C@@H]1C[C@H]2c3cc(NC(=O)C4CCC4)ccc3O[C@H]2[C@H](CO)O1)NCc1ccccn1 | inactive: 15.9%
22 | O=[N+]([O-])c1ccc(N=Nc2ncc[nH]2)cc1 | inactive: 13.8%
23 | CO[C@H]1CN(C)C(=O)c2ccc(NC(=O)c3ccc(Oc4ccccc4)cc3)cc2OC[C@H](C)NC[C@H]1C | inactive: 11.6%

As entered above.
CPE inhibition, Cc1ccnc(NS(=O)(=O)c2ccc(NC(=O)c3cccc(Cl)c3)cc2)n1 is entered as inconclusive: 44.8%
CPE inhibition, COc1ccc(-c2csc(NC(CO)c3nc4ccccc4n3CCCO)n2)cc1 (stereo unspecified) is entered as inconclusive: 70.3%

(list continues)

Row | Compound | CPE inhibition
24 | CC(C)CCN1CCN(Cc2cnc(N3CCCC3)s2)CC1CCO (stereo unspecified) | inactive: 7.64%
25 | C[C@@H]1CN([C@@H](C)CO)C(=O)c2cc(NC(=O)Cn3cnnn3)ccc2O[C@@H]1CN(C)Cc1ccc(Cl)c(Cl)c1 | active: 51.7%
26 | CN1C[C@@H](O)COC[C@H]2O[C@@H](CC(=O)NC3CCCC3)CC[C@@H]21 | inconclusive: 31.7%
27 | CC1=[N+](C)c2ccc3ccccc3c2C1(C)C | inconclusive: 25.8%
28 | OC(CNCc1cccnc1)COc1ccc2ccccc2c1 (stereo unspecified) | inconclusive: 34.9%
29 | COc1cccc(C(=O)Nc2ccc3c(c2)C(=O)N(C)C[C@H](OC)[C@@H](C)CN(C(C)=O)[C@H](C)CO3)c1 | active: 64.5%
30 | CN(C)c1ccc2c(c1)[C@@H]1C[C@@H](CC(=O)NCc3ccc(Oc4ccccc4)cc3)O[C@@H](CO)[C@@H]1O2 | inactive: -0.076%
31 | CC(Oc1ccccc1Cl)C(=O)Nc1ccc(S(=O)(=O)N2CCCC2)cc1 (stereo unspecified) | inconclusive: 44.3%
32 | COc1ccc(NC(=O)CN2C(=O)/C(=C3\SC(=S)N(C4CCS(=O)(=O)C4)C3=O)c3ccccc32)cc1 (stereo unspecified) | inconclusive: 27.9%
33 | C[C@@H]1CN([C@@H](C)CO)C(=O)c2cc(-c3ccccc3)cnc2O[C@@H]1CN(C)C(=O)Nc1ccccc1 | inactive: -2.64%
34 | COc1ccc(S(=O)(=O)Nc2ccc3c(c2)C(=O)N([C@H](C)CO)C[C@H](C)[C@@H](CN(C)Cc2ccc4c(c2)OCO4)OCCCC[C@@H](C)O3)cc1 | active: 23%
35 | CCOc1ccc(C(=O)Nc2ccc(NC(=O)c3ccccc3)cc2)cc1Br | inconclusive: 34.6%
36 | CC(=O)C1=C(C)N(Cc2ccccc2)C(=O)N[C@H]1c1ccco1 | inconclusive: 47.9%
37 | O=C1CCN(Cc2ccccc2)CCN1[C@H](COc1ccccc1)Cc1ccccc1 | inactive: -2.12%
38 | COc1cccc(NC(=O)N(C)C[C@@H]2Oc3cc(C#Cc4ccncc4)ccc3S(=O)(=O)N([C@@H](C)CO)C[C@@H]2C)c1 | inconclusive: -3.15%
39 | Cc1ccc(NC(=O)CSCC(=O)Nc2ccc(S(=O)(=O)N3CCOCC3)cc2)cc1 | inactive: 18%
40 | Cc1ccc(NC(=O)CCS(=O)(=O)c2ccc3nc(C)sc3c2)c(C)c1 | inconclusive: 21.7%
41 | Cc1cccc(N(CC(=O)NC2CC2)S(=O)(=O)c2ccc(Cl)cc2)c1 | active: 49.6%
42 | Cc1ccccc1CN(C)C[C@@H]1OCc2cn(nn2)CCCC(=O)N([C@@H](C)CO)C[C@H]1C | inconclusive: 26.4%
43 | O=C(NC[C@@H]1CC[C@@H]2[C@@H](CN2Cc2cc(-c3ccccc3)on2)O1)c1ccc2c(c1)OCO2 | inactive: 0.884%
44 | CCOC(=O)N1CCN(C(=O)CCCCCn2c(=S)[nH]c3ccsc3c2=O)CC1 | inactive: -2.28%
45 | Cc1cc(C(=O)Nc2cccc3c2O[C@@H](CN(C)S(=O)(=O)c2ccc(F)cc2)[C@@H](C)CN([C@H](C)CO)C3=O)n(C)n1 | inconclusive: 34.8%
46 | CCCC#Cc1ccc([C@H]2[C@H]3CN(Cc4cccnc4)CCCCN3[C@H]2CO)cc1 | inconclusive: 24.3%
